{"source": "PubChem BioAssay AID1259308 (NCATS, 2017)", "assay": "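Candidate targets for better recombinant protein yield in mammalian cells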 (primary screen)", "cells": "human HEK293 embryonic kidney cells stably expressing firefly luciferase (HEK-CMV-Luc2-Hygro)", "knock-down reagent": "single siRNA against human genes, 0.8 pmol siRNA per well", "duration": "72 h", "measurement": "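Reporter luminescence and viable-cell signal on separate replicate plates, given as percent of non-targeting control and median/MAD z-scores, plus per-cell luciferase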", "reading the numbers": "total luciferase, z-score: higher = more reporter protein produced", "active means": "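An siRNA counts as active if its total luciferase robust z-score exceeds 3; genes with two or more such siRNAs out of three were retested with fresh siRNAs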", "meaning of the calls": "active = raised luciferase; inactive = no rise", "note": "Here is an unselected part of about 59,000 deposited reagents. About 1,510 of them (2.6%) were called active. 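Calls use total luciferase alone and ignore viability, so some active siRNAs may act by altering cell number.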 Reagents against one gene are numbered here. Not all columns of the deposit are shown. No sequences are given here."}
{"target":"CTNS","reagent":1,"total luciferase, z-score":1.12,"activity call":"inactive"}
{"target":"CTNS","reagent":2,"total luciferase, z-score":-1.8,"activity call":"inactive"}
{"target":"CTNS","reagent":3,"total luciferase, z-score":-0.386,"activity call":"inactive"}
{"target":"PTPN12","reagent":1,"total luciferase, z-score":-0.478,"activity call":"inactive"}
{"target":"PTPN12","reagent":2,"total luciferase, z-score":-0.781,"activity call":"inactive"}
{"target":"PTPN12","reagent":3,"total luciferase, z-score":0.315,"activity call":"inactive"}
{"target":"CMTM4","reagent":1,"total luciferase, z-score":0.207,"activity call":"inactive"}
{"target":"CMTM4","reagent":2,"total luciferase, z-score":0.848,"activity call":"inactive"}
{"target":"CMTM4","reagent":3,"total luciferase, z-score":1.08,"activity call":"inactive"}
{"target":"GGCX","reagent":1,"total luciferase, z-score":-0.258,"activity call":"inactive"}
{"target":"GGCX","reagent":2,"total luciferase, z-score":1.42,"activity call":"inactive"}
{"target":"GGCX","reagent":3,"total luciferase, z-score":0.278,"activity call":"inactive"}

Entries listed so far whose target name begins with C or c:
{"target":"CTNS","reagent":1,"total luciferase, z-score":1.12,"activity call":"inactive"}
{"target":"CTNS","reagent":2,"total luciferase, z-score":-1.8,"activity call":"inactive"}
{"target":"CTNS","reagent":3,"total luciferase, z-score":-0.386,"activity call":"inactive"}
{"target":"CMTM4","reagent":1,"total luciferase, z-score":0.207,"activity call":"inactive"}
{"target":"CMTM4","reagent":2,"total luciferase, z-score":0.848,"activity call":"inactive"}
{"target":"CMTM4","reagent":3,"total luciferase, z-score":1.08,"activity call":"inactive"}
